Results from patent publication US20250127753A1, “PHARMACEUTICAL APPLICATION OF DIMYRICETIN-YL-DISELENIDE IN TUMORS” (Shanghai Spark Pharmaceutical Co., Ltd., priority 2023, published 2025).

Tested on: SK-OV-3
Test: In vitro cell viability (CTG), SK-OV-3
Type: cell-based, Human
Conditions: SK-OV-3 cells, 72 hours, CTG assay
Method: Collect cells in the exponential growth phase and count viable cells separately using a cell counter. Adjust the cell suspension to an appropriate concentration with the corresponding culture medium. Add 90 μL of the cell suspension to each well of a 96-well cell culture plate, with 3 replicate wells containing 5000 cells/well. Place the plate in an incubator at 37° C. with 5% CO2 overnight.
On the second day, add 10 μL of dimyricetin diselenide and cisplatin to the corresponding wells. The highest final concentration of dimyricetin diselenide is 300 μg/ml (i.e., 379 μM), and the highest final concentration of cisplatin is 300 μM. A total of 9 concentrations are prepared with a 3-fold dilution.
After 72 hours, detect cell viability using the CTG assay.
Using GraphPad Prism 8.0 software, an S-shaped dose-survival curve was plotted with log (inhibitor) as the x-axis and response as the y-axis, adopting the Variable slope (four parameters) model to calculate the IC50 value.

`N.N.[Cl][Pt][Cl]` [Cisplatin, reference compound] was tested. Which IC50 did it give?
Its IC50 is 18 µM.
